According to the supplement of paper PMC6078165:

Test system: Hs578T
Test: relative JC-1 red fluorescence (viability) vs pre-drug, coculture with fibroblast (fraction); higher = more viable cancer cells
Procedure: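 JC-1 labelled TNBC cells cocultured 1:1 (1,500 cells each) with CellTrace Violet stained primary or stromal fibroblasts in 384-well plates in FluoroBrite medium, treated with one of 42 anticancer drugs at 0.1, 1, 10 or 100 uM. JC-1 red fluorescence (mitochondrial integrity in cancer cells only) was read by plate reader every 8 h for 72 h. Values are normalised to each well's pre-drug value. The stock of one drug was tenfold lower, so its dose labels may be too high.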

CCc1c2c(nc3ccc(OC(=O)N4CCC(N5CCCCC5)CC4)cc13)-c1cc3c(c(=O)n1C2)COC(=O)[C@]3(O)CC [Irinotecan]
relative JC-1 red fluorescence
Settings | 8 h | 16 h | 24 h | 32 h | 40 h | 48 h | 56 h | 64 h | 72 h
0.1 µM | 0.822 ± 0.02 | 0.7677 ± 0.0075 | 0.754 ± 0.0027 | 0.733 ± 0.0079 | 0.6844 ± 0.0061 | 0.657 ± 0.009 | 0.637 ± 0.0077 | 0.597 ± 0.015 | 0.586 ± 0.013
1 µM | 0.877 ± 0.03 | 0.782 ± 0.0086 | 0.747 ± 0.07 | 0.703 ± 0.088 | 0.644 ± 0.1 | 0.6 ± 0.12 | 0.588 ± 0.13 | 0.546 ± 0.14 | 0.529 ± 0.14

relative JC-1 red fluorescence
Settings | 8 h | 16 h | 24 h | 32 h | 40 h | 48 h | 56 h | 64 h | 72 h
0.1 µM, coculture fibroblast: C12385 | 0.809 ± 0.023 | 0.711 ± 0.011 | 0.7217 ± 0.0072 | 0.623 ± 0.01 | 0.567 ± 0.011 | 0.543 ± 0.0063 | 0.5172 ± 0.0024 | 0.5118 ± 0.0038 | 0.5166 ± 0.0043
0.1 µM, coculture fibroblast: H6013 | 0.843 ± 0.065 | 0.822 ± 0.043 | 0.807 ± 0.063 | 0.798 ± 0.078 | 0.778 ± 0.074 | 0.783 ± 0.073 | 0.766 ± 0.069 | 0.773 ± 0.074 | 0.748 ± 0.073
0.1 µM, coculture fibroblast: H6019 | 0.764 ± 0.014 | 0.6891 ± 0.00075 | 0.658 ± 0.029 | 0.557 ± 0.033 | 0.526 ± 0.025 | 0.501 ± 0.029 | 0.47 ± 0.033 | 0.449 ± 0.04 | 0.424 ± 0.045
0.1 µM, coculture fibroblast: H6076 | 0.8406 ± 0.0017 | 0.791 ± 0.016 | 0.801 ± 0.032 | 0.81 ± 0.033 | 0.794 ± 0.029 | 0.822 ± 0.031 | 0.835 ± 0.039 | 0.847 ± 0.034 | 0.858 ± 0.043
0.1 µM, coculture fibroblast: H6231 | 0.885 ± 0.013 | 0.7881 ± 0.0034 | 0.744 ± 0.026 | 0.718 ± 0.033 | 0.662 ± 0.048 | 0.636 ± 0.052 | 0.6 ± 0.051 | 0.581 ± 0.057 | 0.563 ± 0.049
0.1 µM, coculture fibroblast: HADF | 0.8811 ± 0.0035 | 0.78 ± 0.02 | 0.721 ± 0.025 | 0.669 ± 0.048 | 0.626 ± 0.052 | 0.598 ± 0.059 | 0.567 ± 0.056 | 0.564 ± 0.06 | 0.539 ± 0.055
0.1 µM, coculture fibroblast: HCFa | 0.848 ± 0.028 | 0.812 ± 0.033 | 0.765 ± 0.041 | 0.709 ± 0.027 | 0.664 ± 0.033 | 0.641 ± 0.046 | 0.6 ± 0.062 | 0.587 ± 0.061 | 0.547 ± 0.057
0.1 µM, coculture fibroblast: HCPF | 0.891 ± 0.018 | 0.8127 ± 0.0044 | 0.7754 ± 0.0029 | 0.7521 ± 0.0018 | 0.705 ± 0.0078 | 0.682 ± 0.0074 | 0.666 ± 0.02 | 0.643 ± 0.022 | 0.627 ± 0.026
0.1 µM, coculture fibroblast: HHSteC | 0.886 ± 0.02 | 0.858 ± 0.043 | 0.834 ± 0.064 | 0.807 ± 0.079 | 0.766 ± 0.11 | 0.743 ± 0.12 | 0.719 ± 0.14 | 0.708 ± 0.14 | 0.67 ± 0.14
0.1 µM, coculture fibroblast: HMF | 0.835 ± 0.065 | 0.763 ± 0.05 | 0.753 ± 0.026 | 0.757 ± 0.022 | 0.713 ± 0.02 | 0.699 ± 0.023 | 0.689 ± 0.01 | 0.672 ± 0.0061 | 0.672 ± 0.022
0.1 µM, coculture fibroblast: HPFa | 0.9098 ± 0.0012 | 0.814 ± 0.013 | 0.748 ± 0.011 | 0.691 ± 0.018 | 0.65 ± 0.025 | 0.611 ± 0.031 | 0.563 ± 0.031 | 0.535 ± 0.027 | 0.488 ± 0.031
0.1 µM, coculture fibroblast: HUF | 0.883 ± 0.013 | 0.76 ± 0.016 | 0.765 ± 0.025 | 0.655 ± 0.026 | 0.602 ± 0.029 | 0.571 ± 0.03 | 0.548 ± 0.039 | 0.545 ± 0.035 | 0.539 ± 0.029
0.1 µM, coculture fibroblast: Hs27A | 0.886 ± 0.016 | 0.8 ± 0.021 | 0.759 ± 0.027 | 0.693 ± 0.038 | 0.623 ± 0.036 | 0.59 ± 0.035 | 0.547 ± 0.033 | 0.527 ± 0.029 | 0.471 ± 0.028
0.1 µM, coculture fibroblast: Hs343T | 0.827 ± 0.051 | 0.73 ± 0.012 | 0.7092 ± 0.002 | 0.706 ± 0.0079 | 0.651 ± 0.0091 | 0.632 ± 0.015 | 0.61 ± 0.0067 | 0.605 ± 0.0099 | 0.62 ± 0.016
0.1 µM, coculture fibroblast: WS1 | 0.784 ± 0.019 | 0.693 ± 0.03 | 0.637 ± 0.063 | 0.54 ± 0.063 | 0.485 ± 0.09 | 0.465 ± 0.098 | 0.436 ± 0.11 | 0.433 ± 0.12 | 0.425 ± 0.13
1 µM, coculture fibroblast: C12385 | 0.792 ± 0.013 | 0.7065 ± 0.0042 | 0.636 ± 0.021 | 0.554 ± 0.0075 | 0.4891 ± 0.004 | 0.453 ± 0.0047 | 0.426 ± 0.0053 | 0.412 ± 0.0052 | 0.404 ± 0.007
1 µM, coculture fibroblast: H6013 | 0.823 ± 0.011 | 0.76 ± 0.023 | 0.708 ± 0.032 | 0.67 ± 0.041 | 0.638 ± 0.054 | 0.626 ± 0.061 | 0.605 ± 0.064 | 0.597 ± 0.063 | 0.573 ± 0.059
1 µM, coculture fibroblast: H6019 | 0.748 ± 0.0091 | 0.6655 ± 0.0022 | 0.674 ± 0.043 | 0.581 ± 0.051 | 0.551 ± 0.068 | 0.529 ± 0.072 | 0.504 ± 0.08 | 0.49 ± 0.085 | 0.47 ± 0.088
1 µM, coculture fibroblast: H6076 | 0.8914 ± 0.0082 | 0.8141 ± 0.0014 | 0.769 ± 0.049 | 0.749 ± 0.053 | 0.709 ± 0.057 | 0.706 ± 0.069 | 0.71 ± 0.082 | 0.704 ± 0.087 | 0.703 ± 0.097
1 µM, coculture fibroblast: H6231 | 0.88 ± 0.017 | 0.77543 ± 0.00027 | 0.712 ± 0.017 | 0.655 ± 0.021 | 0.587 ± 0.023 | 0.551 ± 0.03 | 0.516 ± 0.037 | 0.494 ± 0.033 | 0.481 ± 0.036
1 µM, coculture fibroblast: HADF | 0.835 ± 0.012 | 0.79 ± 0.042 | 0.737 ± 0.071 | 0.683 ± 0.074 | 0.646 ± 0.094 | 0.624 ± 0.1 | 0.586 ± 0.12 | 0.58 ± 0.13 | 0.561 ± 0.14
1 µM, coculture fibroblast: HCFa | 0.835 ± 0.015 | 0.778 ± 0.012 | 0.715 ± 0.0023 | 0.646 ± 0.012 | 0.587 ± 0.039 | 0.563 ± 0.046 | 0.53 ± 0.058 | 0.515 ± 0.055 | 0.48 ± 0.056
1 µM, coculture fibroblast: HCPF | 0.907 ± 0.048 | 0.83 ± 0.059 | 0.794 ± 0.068 | 0.753 ± 0.079 | 0.696 ± 0.082 | 0.666 ± 0.083 | 0.662 ± 0.098 | 0.626 ± 0.1 | 0.621 ± 0.11
1 µM, coculture fibroblast: HHSteC | 0.845 ± 0.022 | 0.755 ± 0.017 | 0.694 ± 0.0028 | 0.634 ± 0.014 | 0.587 ± 0.018 | 0.555 ± 0.014 | 0.531 ± 0.011 | 0.512 ± 0.0091 | 0.4836 ± 0.0031
1 µM, coculture fibroblast: HMF | 0.84626 ± 8.8e-05 | 0.779 ± 0.031 | 0.734 ± 0.05 | 0.7 ± 0.069 | 0.647 ± 0.078 | 0.612 ± 0.09 | 0.597 ± 0.1 | 0.568 ± 0.11 | 0.561 ± 0.12
1 µM, coculture fibroblast: HPFa | 0.89 ± 0.054 | 0.824 ± 0.041 | 0.781 ± 0.055 | 0.737 ± 0.053 | 0.718 ± 0.054 | 0.695 ± 0.06 | 0.655 ± 0.047 | 0.637 ± 0.036 | 0.594 ± 0.021
1 µM, coculture fibroblast: HUF | 0.89 ± 0.011 | 0.76 ± 0.011 | 0.757 ± 0.034 | 0.641 ± 0.045 | 0.585 ± 0.054 | 0.548 ± 0.064 | 0.522 ± 0.076 | 0.515 ± 0.081 | 0.511 ± 0.095
1 µM, coculture fibroblast: Hs27A | 0.879 ± 0.018 | 0.852 ± 0.015 | 0.8049 ± 0.0019 | 0.768 ± 0.018 | 0.717 ± 0.028 | 0.698 ± 0.016 | 0.657 ± 0.029 | 0.663 ± 0.042 | 0.619 ± 0.051
1 µM, coculture fibroblast: Hs343T | 0.86 ± 0.081 | 0.764 ± 0.064 | 0.726 ± 0.031 | 0.694 ± 0.015 | 0.635 ± 0.0098 | 0.6038 ± 0.0016 | 0.582 ± 0.011 | 0.563 ± 0.03 | 0.566 ± 0.033
1 µM, coculture fibroblast: WS1 | 0.799 ± 0.032 | 0.7128 ± 0.0012 | 0.68 ± 0.0021 | 0.5844 ± 0.0035 | 0.539 ± 0.012 | 0.525 ± 0.0065 | 0.511 ± 0.012 | 0.519 ± 0.014 | 0.517 ± 0.019

± gives the standard deviation of the averaged measurements. Values are relative to the signal before dosing, not to a vehicle control; the signal also falls without drug.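 Labels refer to human fibroblasts, largely primary: uterine (C12385, HUF), lung (H6013), bone (Hs27A), adrenal (HADF), skin (WS1), plus mammary HMF and breast cancer-associated Hs343T. Cancer lines are basal-like or mesenchymal-like triple-negative breast cancer. The paper counts as hits responses shifting over 3x the replicate standard deviation. The tissue of the other fibroblasts is not given here.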
